# Experimental data as given in the supplement of paper PMC6411743.
# The chains behind the UniProt entries cited, without tags or fusion partners. Where a name states a change or a piece, a line headed by the entry shows the natural chain unless it says otherwise.
# UniProt Q9HBI0: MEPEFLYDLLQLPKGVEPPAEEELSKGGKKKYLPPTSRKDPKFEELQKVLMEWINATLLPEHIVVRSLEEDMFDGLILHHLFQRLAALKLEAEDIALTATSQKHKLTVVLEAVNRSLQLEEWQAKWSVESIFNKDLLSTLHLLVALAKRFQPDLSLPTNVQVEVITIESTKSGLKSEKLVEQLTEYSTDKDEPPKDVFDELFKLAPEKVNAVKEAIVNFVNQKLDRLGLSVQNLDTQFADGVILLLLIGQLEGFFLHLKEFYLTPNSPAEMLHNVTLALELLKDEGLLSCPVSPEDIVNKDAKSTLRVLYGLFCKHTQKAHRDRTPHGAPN
# UniProt Q9H3G5: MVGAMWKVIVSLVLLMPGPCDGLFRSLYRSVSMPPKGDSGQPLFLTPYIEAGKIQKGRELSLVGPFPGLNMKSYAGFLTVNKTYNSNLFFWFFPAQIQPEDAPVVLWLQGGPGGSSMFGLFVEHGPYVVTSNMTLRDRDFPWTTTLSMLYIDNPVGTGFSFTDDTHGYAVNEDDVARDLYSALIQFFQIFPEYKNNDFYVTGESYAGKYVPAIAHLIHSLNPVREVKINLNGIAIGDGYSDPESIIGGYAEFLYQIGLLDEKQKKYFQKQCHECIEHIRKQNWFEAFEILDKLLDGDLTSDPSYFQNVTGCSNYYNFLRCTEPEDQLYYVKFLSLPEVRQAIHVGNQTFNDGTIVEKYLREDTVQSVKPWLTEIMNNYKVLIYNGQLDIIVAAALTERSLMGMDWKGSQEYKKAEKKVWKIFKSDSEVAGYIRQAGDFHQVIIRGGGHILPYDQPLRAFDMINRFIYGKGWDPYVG
# UniProt Q9H9T3: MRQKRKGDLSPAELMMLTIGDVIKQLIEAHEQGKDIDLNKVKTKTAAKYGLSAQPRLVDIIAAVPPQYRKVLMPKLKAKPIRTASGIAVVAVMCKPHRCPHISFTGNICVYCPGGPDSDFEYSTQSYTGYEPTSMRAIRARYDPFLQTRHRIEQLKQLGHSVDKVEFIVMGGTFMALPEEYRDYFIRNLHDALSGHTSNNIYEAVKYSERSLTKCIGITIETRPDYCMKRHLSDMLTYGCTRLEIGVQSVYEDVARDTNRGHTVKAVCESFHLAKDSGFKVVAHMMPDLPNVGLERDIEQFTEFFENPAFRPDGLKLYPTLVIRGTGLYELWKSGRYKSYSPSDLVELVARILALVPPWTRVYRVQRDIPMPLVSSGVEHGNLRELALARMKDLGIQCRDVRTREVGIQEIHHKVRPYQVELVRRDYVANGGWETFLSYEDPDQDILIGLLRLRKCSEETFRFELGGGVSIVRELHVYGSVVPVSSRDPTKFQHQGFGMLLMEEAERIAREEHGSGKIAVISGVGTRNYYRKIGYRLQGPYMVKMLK
# UniProt Q9H3N1: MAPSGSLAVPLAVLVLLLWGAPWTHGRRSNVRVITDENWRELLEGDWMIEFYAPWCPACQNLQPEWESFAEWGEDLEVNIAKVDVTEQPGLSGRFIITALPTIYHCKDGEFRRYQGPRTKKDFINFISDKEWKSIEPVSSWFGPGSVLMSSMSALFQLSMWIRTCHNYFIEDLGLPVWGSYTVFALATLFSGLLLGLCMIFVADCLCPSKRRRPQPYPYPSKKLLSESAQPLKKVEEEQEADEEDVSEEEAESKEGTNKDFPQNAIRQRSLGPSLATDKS
# UniProt Q9H2P0: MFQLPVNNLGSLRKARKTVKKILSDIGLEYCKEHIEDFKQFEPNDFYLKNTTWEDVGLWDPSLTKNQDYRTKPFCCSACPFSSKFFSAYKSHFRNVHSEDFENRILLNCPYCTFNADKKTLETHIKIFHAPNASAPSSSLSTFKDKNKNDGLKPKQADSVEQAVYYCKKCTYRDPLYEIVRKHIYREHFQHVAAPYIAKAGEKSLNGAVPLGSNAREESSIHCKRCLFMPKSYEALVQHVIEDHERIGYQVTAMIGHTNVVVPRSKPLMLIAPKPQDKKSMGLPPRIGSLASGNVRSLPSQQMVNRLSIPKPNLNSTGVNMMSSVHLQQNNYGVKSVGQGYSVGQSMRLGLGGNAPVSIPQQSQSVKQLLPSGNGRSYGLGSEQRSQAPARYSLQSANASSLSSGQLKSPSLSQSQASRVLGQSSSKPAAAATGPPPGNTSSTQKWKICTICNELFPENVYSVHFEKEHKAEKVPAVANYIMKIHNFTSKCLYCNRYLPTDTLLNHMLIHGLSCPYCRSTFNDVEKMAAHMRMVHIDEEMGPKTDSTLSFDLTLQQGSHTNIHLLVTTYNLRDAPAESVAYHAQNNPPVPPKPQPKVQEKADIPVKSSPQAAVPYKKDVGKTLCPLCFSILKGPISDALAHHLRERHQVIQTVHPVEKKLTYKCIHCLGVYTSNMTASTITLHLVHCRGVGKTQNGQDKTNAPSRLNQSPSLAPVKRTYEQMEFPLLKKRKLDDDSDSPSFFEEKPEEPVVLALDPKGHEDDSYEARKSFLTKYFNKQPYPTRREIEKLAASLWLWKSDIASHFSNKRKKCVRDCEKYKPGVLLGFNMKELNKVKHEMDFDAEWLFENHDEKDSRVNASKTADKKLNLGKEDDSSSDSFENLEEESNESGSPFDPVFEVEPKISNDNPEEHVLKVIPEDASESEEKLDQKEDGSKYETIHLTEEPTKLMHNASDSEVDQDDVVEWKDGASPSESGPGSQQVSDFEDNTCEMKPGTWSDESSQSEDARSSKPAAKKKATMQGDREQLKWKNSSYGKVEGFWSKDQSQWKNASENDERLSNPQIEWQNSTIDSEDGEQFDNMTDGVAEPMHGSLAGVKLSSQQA
# UniProt Q9HAU0: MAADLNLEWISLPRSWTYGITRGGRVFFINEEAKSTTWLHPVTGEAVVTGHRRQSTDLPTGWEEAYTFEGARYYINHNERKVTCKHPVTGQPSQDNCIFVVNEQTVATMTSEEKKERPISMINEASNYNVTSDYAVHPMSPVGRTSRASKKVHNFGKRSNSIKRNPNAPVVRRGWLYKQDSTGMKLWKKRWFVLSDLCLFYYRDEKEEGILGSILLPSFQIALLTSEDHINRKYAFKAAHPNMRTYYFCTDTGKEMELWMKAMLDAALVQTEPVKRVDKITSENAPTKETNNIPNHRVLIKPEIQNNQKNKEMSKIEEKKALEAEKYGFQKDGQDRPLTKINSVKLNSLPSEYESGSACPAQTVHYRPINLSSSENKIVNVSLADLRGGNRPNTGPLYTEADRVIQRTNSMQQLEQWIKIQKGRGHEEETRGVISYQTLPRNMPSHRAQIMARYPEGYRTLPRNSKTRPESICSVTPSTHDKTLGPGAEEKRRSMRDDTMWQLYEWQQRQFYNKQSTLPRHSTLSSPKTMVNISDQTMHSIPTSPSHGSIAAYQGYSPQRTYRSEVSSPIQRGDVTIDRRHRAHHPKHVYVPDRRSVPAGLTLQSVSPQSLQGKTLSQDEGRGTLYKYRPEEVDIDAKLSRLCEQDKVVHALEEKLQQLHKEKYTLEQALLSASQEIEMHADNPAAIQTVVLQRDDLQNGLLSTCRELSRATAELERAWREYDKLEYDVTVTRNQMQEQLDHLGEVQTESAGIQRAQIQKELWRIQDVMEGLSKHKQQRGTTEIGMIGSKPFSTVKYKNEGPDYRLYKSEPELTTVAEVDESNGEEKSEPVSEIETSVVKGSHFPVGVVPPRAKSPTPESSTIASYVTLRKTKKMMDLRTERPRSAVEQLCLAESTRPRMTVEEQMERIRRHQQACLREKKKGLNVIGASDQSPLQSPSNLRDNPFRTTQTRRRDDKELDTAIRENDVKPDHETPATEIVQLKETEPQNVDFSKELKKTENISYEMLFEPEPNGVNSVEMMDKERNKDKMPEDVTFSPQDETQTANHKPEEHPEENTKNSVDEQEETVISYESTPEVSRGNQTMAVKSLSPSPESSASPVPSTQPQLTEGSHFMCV
# UniProt Q9H7P6: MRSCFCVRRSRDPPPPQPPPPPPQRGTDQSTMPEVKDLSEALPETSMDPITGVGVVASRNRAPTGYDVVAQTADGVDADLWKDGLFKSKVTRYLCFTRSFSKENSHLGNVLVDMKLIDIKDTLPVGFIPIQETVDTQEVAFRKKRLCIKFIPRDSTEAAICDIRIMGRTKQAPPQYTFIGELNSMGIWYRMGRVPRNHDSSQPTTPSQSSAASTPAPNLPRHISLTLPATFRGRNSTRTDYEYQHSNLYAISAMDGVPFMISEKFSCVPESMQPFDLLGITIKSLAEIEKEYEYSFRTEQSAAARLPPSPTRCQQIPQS
# UniProt Q9H9A6: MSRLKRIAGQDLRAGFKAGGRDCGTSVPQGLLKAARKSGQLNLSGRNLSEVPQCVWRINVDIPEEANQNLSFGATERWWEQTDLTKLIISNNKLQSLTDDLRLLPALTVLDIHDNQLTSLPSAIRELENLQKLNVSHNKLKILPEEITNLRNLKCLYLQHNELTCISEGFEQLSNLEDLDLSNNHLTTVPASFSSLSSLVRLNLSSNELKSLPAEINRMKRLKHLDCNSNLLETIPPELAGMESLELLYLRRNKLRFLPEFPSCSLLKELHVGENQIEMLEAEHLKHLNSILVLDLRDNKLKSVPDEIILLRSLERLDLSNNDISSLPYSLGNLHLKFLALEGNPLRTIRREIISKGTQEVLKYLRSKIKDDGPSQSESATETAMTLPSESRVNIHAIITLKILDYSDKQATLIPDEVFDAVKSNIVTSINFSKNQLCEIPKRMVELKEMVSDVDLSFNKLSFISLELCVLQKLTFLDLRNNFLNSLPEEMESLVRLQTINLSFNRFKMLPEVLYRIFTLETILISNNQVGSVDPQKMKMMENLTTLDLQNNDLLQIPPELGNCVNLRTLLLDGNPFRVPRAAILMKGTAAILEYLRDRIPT
# UniProt Q9H165: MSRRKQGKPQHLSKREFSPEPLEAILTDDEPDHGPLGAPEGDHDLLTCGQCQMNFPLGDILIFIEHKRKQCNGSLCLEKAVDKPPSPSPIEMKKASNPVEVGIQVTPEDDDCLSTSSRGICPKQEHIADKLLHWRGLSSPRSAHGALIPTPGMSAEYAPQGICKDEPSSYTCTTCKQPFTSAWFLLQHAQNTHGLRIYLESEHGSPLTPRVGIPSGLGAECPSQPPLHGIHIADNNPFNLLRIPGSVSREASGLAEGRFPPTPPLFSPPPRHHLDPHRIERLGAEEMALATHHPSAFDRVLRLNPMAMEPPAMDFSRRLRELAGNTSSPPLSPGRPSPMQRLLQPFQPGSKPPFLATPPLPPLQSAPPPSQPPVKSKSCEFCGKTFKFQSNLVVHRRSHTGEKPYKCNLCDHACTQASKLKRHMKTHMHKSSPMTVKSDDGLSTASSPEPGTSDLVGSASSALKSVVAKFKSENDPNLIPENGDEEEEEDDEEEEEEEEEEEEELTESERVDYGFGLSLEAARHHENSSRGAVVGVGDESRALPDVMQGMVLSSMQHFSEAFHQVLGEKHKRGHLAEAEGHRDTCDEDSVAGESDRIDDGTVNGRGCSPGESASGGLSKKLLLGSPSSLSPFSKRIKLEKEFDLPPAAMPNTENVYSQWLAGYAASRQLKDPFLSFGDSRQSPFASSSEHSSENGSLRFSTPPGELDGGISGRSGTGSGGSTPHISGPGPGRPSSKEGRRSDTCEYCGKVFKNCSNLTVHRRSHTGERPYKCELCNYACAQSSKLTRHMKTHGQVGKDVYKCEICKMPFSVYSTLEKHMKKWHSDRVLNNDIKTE
# UniProt Q9H2K0, whole entry, looked up: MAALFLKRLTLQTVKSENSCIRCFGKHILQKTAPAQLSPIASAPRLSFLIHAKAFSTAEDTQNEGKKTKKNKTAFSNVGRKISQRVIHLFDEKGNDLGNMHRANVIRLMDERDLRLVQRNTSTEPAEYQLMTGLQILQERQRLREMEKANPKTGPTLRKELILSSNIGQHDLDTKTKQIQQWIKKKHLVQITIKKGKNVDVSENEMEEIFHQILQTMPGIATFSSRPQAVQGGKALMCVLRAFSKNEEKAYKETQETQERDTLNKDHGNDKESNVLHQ
# UniProt Q9H061: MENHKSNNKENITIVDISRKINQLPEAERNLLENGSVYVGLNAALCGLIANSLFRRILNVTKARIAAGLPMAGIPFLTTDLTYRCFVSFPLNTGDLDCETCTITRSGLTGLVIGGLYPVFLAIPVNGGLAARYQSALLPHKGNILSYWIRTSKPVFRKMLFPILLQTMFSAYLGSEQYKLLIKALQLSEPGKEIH
# UniProt Q9H300: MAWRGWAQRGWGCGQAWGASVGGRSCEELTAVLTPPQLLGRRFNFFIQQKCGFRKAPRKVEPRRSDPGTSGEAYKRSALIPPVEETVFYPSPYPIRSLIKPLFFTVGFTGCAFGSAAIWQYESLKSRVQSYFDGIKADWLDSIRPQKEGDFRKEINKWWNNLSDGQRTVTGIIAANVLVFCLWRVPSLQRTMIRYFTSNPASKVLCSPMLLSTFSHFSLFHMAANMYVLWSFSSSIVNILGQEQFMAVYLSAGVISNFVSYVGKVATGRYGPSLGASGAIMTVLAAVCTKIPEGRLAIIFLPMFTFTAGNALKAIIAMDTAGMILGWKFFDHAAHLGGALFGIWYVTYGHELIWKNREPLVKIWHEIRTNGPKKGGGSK
# ± gives the standard deviation of the averaged measurements. The list shows a part of the results, in another mix than the full data.
# Compound: Nc1ncnc2c1ncn2[C@@H]1O[C@H](COP(=O)(O)OP(=O)(O)OP(=O)(O)O)[C@@H](O)[C@H]1O [adenosine triphosphate]
# Experiment: NP40-soluble protein abundance relative to vehicle (solubility fold change) (ratio); higher = more soluble protein in presence of ATP
# Outline: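 Values are fold changes against the detergent-processed vehicle, based on vsn-normalised intensities. Jurkat crude lysate was treated at eight concentrations from 0.1 to 10 mM (10 min at room temperature, then 3 min at 37 °C), solubilised with 0.8% NP40 and benzonase, ultracentrifuged and analysed by TMT-labelled LC-MS/MS over three independent experiments.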
Target,NP40-soluble protein abundance (concentration: 1mM),NP40-soluble protein abundance (concentration: 2mM),NP40-soluble protein abundance (concentration: 4mM),NP40-soluble protein abundance (concentration: 6mM),NP40-soluble protein abundance (concentration: 8mM),NP40-soluble protein abundance (concentration: 10mM)
PARVG (UniProt Q9HBI0),1 ± 0.12,0.993 ± 0.085,0.978 ± 0.09,0.877 ± 0.14,0.972 ± 0.057,0.982 ± 0.053
CPVL (UniProt Q9H3G5),0.957 ± 0.065,0.967 ± 0.046,0.955 ± 0.06,0.94 ± 0.069,0.97 ± 0.026,0.946 ± 0.03
UniProt Q9GZR1 and related entries,0.916 ± 0.053,0.917 ± 0.12,0.908 ± 0.089,0.957 ± 0.14,0.911 ± 0.1,0.997 ± 0.059
UniProt Q9H3U1 and related entries,0.949 ± 0.028,0.932 ± 0.041,0.928 ± 0.033,0.907 ± 0.047,0.923 ± 0.029,0.927 ± 0.037
SLC25A19 (UniProt Q9HC21),0.944 ± 0.077,0.937 ± 0.026,0.961 ± 0.039,0.876 ± 0.087,1.01 ± 0.031,1.06 ± 0.033
UniProt Q9GZN8 and related entries,1.07 ± 0.065,1.07 ± 0.038,1.08 ± 0.027,1.02 ± 0.028,1.05 ± 0.015,1.02 ± 0.053
SDF2L1 (UniProt Q9HCN8),0.937 ± 0.021,0.947 ± 0.034,0.942 ± 0.015,0.929 ± 0.022,0.948 ± 0.035,0.968 ± 0.027
UniProt Q9H9T3 and related entries,1.04 ± 0.1,0.988 ± 0.039,0.962 ± 0.037,0.934 ± 0.027,1 ± 0.0067,0.973 ± 0.017
LSG1 (UniProt Q9H089),1.07 ± 0.03,1.08 ± 0.021,1.072 ± 0.0071,1.08 ± 0.03,1.09 ± 0.036,1.11 ± 0.055
UniProt Q9H3N1,0.898 ± 0.054,0.904 ± 0.054,0.871 ± 0.025,0.94 ± 0.015,0.853 ± 0.049,0.851 ± 0.037
ADNP (UniProt Q9H2P0),1.05 ± 0.036,1.06 ± 0.048,1.07 ± 0.046,1.1 ± 0.082,1.09 ± 0.044,1.1 ± 0.042
KLC2 (UniProt Q9H0B6),0.984 ± 0.037,0.949 ± 0.02,0.958 ± 0.016,0.978 ± 0.039,0.948 ± 0.039,0.9276 ± 0.0072
UBA5 (UniProt Q9GZZ9),0.965 ± 0.016,0.967 ± 0.055,0.946 ± 0.041,0.975 ± 0.053,0.948 ± 0.057,0.948 ± 0.047
ALG2 (UniProt Q9H553),1.03 ± 0.045,0.985 ± 0.021,0.945 ± 0.084,0.949 ± 0.096,0.962 ± 0.057,0.946 ± 0.051
UniProt Q9HAU0 and related entries,1.04 ± 0.11,1.03 ± 0.11,1.09 ± 0.15,1.14 ± 0.14,1.1 ± 0.11,1.13 ± 0.094
UniProt Q9H0R4 and related entries,0.931 ± 0.01,0.932 ± 0.022,0.912 ± 0.072,0.932 ± 0.016,0.921 ± 0.028,0.882 ± 0.02
ETNK1 (UniProt Q9HBU6),1.01 ± 0.12,1.02 ± 0.11,0.982 ± 0.091,0.94 ± 0.088,1 ± 0.056,0.954 ± 0.03
C12orf10 (UniProt Q9HB07),0.9606 ± 0.0039,0.968 ± 0.023,0.941 ± 0.021,0.948 ± 0.052,0.948 ± 0.028,0.94 ± 0.041
UniProt Q9H6Q4,0.994 ± 0.044,0.947 ± 0.035,1.03 ± 0.04,0.935 ± 0.045,0.936 ± 0.033,0.967 ± 0.026
SPC25 (UniProt Q9HBM1),0.967 ± 0.032,0.98 ± 0.011,0.967 ± 0.019,0.9684 ± 0.0042,0.942 ± 0.013,0.91 ± 0.059

# Full records as entered above.
# SPC25 (UniProt Q9HBM1) as listed: NP40-soluble protein abundance (concentration: 1mM): 0.967 ± 0.032; NP40-soluble protein abundance (concentration: 2mM): 0.98 ± 0.011; NP40-soluble protein abundance (concentration: 4mM): 0.967 ± 0.019; NP40-soluble protein abundance (concentration: 6mM): 0.9684 ± 0.0042; NP40-soluble protein abundance (concentration: 8mM): 0.942 ± 0.013; NP40-soluble protein abundance (concentration: 10mM): 0.91 ± 0.059
# LSG1 (UniProt Q9H089) as listed: NP40-soluble protein abundance (concentration: 1mM): 1.07 ± 0.03; NP40-soluble protein abundance (concentration: 2mM): 1.08 ± 0.021; NP40-soluble protein abundance (concentration: 4mM): 1.072 ± 0.0071; NP40-soluble protein abundance (concentration: 6mM): 1.08 ± 0.03; NP40-soluble protein abundance (concentration: 8mM): 1.09 ± 0.036; NP40-soluble protein abundance (concentration: 10mM): 1.11 ± 0.055
# ADNP (UniProt Q9H2P0) as listed: NP40-soluble protein abundance (concentration: 1mM): 1.05 ± 0.036; NP40-soluble protein abundance (concentration: 2mM): 1.06 ± 0.048; NP40-soluble protein abundance (concentration: 4mM): 1.07 ± 0.046; NP40-soluble protein abundance (concentration: 6mM): 1.1 ± 0.082; NP40-soluble protein abundance (concentration: 8mM): 1.09 ± 0.044; NP40-soluble protein abundance (concentration: 10mM): 1.1 ± 0.042
# UniProt Q9GZR1 and related entries as listed: NP40-soluble protein abundance (concentration: 1mM): 0.916 ± 0.053; NP40-soluble protein abundance (concentration: 2mM): 0.917 ± 0.12; NP40-soluble protein abundance (concentration: 4mM): 0.908 ± 0.089; NP40-soluble protein abundance (concentration: 6mM): 0.957 ± 0.14; NP40-soluble protein abundance (concentration: 8mM): 0.911 ± 0.1; NP40-soluble protein abundance (concentration: 10mM): 0.997 ± 0.059

# Next records follow.

Target,NP40-soluble protein abundance (concentration: 1mM),NP40-soluble protein abundance (concentration: 2mM),NP40-soluble protein abundance (concentration: 4mM),NP40-soluble protein abundance (concentration: 6mM),NP40-soluble protein abundance (concentration: 8mM),NP40-soluble protein abundance (concentration: 10mM)
UniProt Q9GZT8 and related entries,0.951 ± 0.049,0.94 ± 0.046,0.924 ± 0.05,0.889 ± 0.078,0.948 ± 0.042,0.951 ± 0.028
UniProt Q9HBE1 and related entries,1.05 ± 0.034,1.02 ± 0.055,1.1 ± 0.042,1.13 ± 0.08,1.09 ± 0.044,1.11 ± 0.02
MVB12B (UniProt Q9H7P6),0.9484 ± 0.0076,0.962 ± 0.046,0.935 ± 0.031,0.946 ± 0.031,0.931 ± 0.016,0.942 ± 0.031
C12orf65 (UniProt Q9H3J6),0.929 ± 0.036,0.897 ± 0.059,1.19 ± 0.054,1.284 ± 0.0085,1.29 ± 0.15,1.24 ± 0.15
GOLPH3 (UniProt Q9H4A6),0.944 ± 0.04,0.969 ± 0.046,0.98 ± 0.066,0.931 ± 0.063,0.944 ± 0.076,0.938 ± 0.075
GAN (UniProt Q9H2C0),1.07 ± 0.12,1.04 ± 0.032,1.02 ± 0.052,0.928 ± 0.085,1.03 ± 0.053,1.03 ± 0.025
XAB2 (UniProt Q9HCS7),1.1 ± 0.1,1 ± 0.06,1.01 ± 0.066,0.939 ± 0.047,1.04 ± 0.057,1.02 ± 0.092
CARS2 (UniProt Q9HA77),0.97 ± 0.018,0.984 ± 0.017,0.955 ± 0.011,0.93 ± 0.041,0.954 ± 0.015,0.95 ± 0.013
TLNRD1 (UniProt Q9H1K6),1.05 ± 0.077,1.07 ± 0.037,1.03 ± 0.12,0.97 ± 0.04,1 ± 0.038,1.07 ± 0.16
SPRTN (UniProt Q9H040),1.02 ± 0.24,1.04 ± 0.26,1.11 ± 0.094,1.11 ± 0.085,0.929 ± 0.021,1.02 ± 0.021
PDF (UniProt Q9HBH1),0.968 ± 0.032,0.973 ± 0.02,0.961 ± 0.032,0.979 ± 0.049,0.942 ± 0.083,0.932 ± 0.059
MRPL46 (UniProt Q9H2W6),0.987 ± 0.1,0.927 ± 0.099,0.899 ± 0.067,0.913 ± 0.16,0.935 ± 0.11,0.86 ± 0.091
SFXN1 (UniProt Q9H9B4),0.971 ± 0.012,0.978 ± 0.023,0.959 ± 0.02,0.96 ± 0.051,0.9536 ± 0.0036,0.959 ± 0.021
WDR33 (UniProt Q9C0J8),1.23 ± 0.046,1.32 ± 0.037,1.4 ± 0.059,1.52 ± 0.1,1.54 ± 0.091,1.56 ± 0.074
LRRC40 (UniProt Q9H9A6),0.993 ± 0.033,0.974 ± 0.038,0.978 ± 0.027,0.935 ± 0.029,0.968 ± 0.01,0.999 ± 0.04
EHD1 (UniProt Q9H4M9),1.02 ± 0.077,1.01 ± 0.05,1 ± 0.083,0.954 ± 0.086,1 ± 0.093,0.974 ± 0.047
SCAF1 (UniProt Q9H7N4),1.34 ± 0.11,1.4 ± 0.11,1.48 ± 0.087,1.58 ± 0.091,1.49 ± 0.077,1.51 ± 0.087
MRPL44 (UniProt Q9H9J2),1.04 ± 0.061,0.943 ± 0.076,0.892 ± 0.027,0.896 ± 0.18,0.933 ± 0.16,0.898 ± 0.11
CDT1 (UniProt Q9H211),1 ± 0.075,1.03 ± 0.037,1.04 ± 0.076,1.06 ± 0.061,1.02 ± 0.055,1.01 ± 0.053
UniProt Q9H3R0 and related entries,1.05 ± 0.022,1.03 ± 0.051,1.03 ± 0.069,1.17 ± 0.12,1.05 ± 0.043,1.03 ± 0.054

Target,NP40-soluble protein abundance (concentration: 1mM),NP40-soluble protein abundance (concentration: 2mM),NP40-soluble protein abundance (concentration: 4mM),NP40-soluble protein abundance (concentration: 6mM),NP40-soluble protein abundance (concentration: 8mM),NP40-soluble protein abundance (concentration: 10mM)
UniProt Q9HCE5,1.01 ± 0.038,0.982 ± 0.046,0.913 ± 0.012,0.927 ± 0.057,0.974 ± 0.046,0.934 ± 0.033
UniProt Q9HCJ0 and related entries,0.98 ± 0.1,1.03 ± 0.055,1.01 ± 0.069,1.05 ± 0.099,1.03 ± 0.081,1.05 ± 0.047
UniProt Q9H165 and related entries,0.943 ± 0.023,1.23 ± 0.12,1.19 ± 0.16,1.25 ± 0.048,1.25 ± 0.048,1.2 ± 0.081
MTIF3 (UniProt Q9H2K0),1.1 ± 0.15,1.06 ± 0.075,1.15 ± 0.074,1.13 ± 0.041,1.16 ± 0.063,1.09 ± 0.14
POLR3F (UniProt Q9H1D9),1.06 ± 0.053,1.03 ± 0.026,1.01 ± 0.042,0.999 ± 0.056,1.06 ± 0.04,1.02 ± 0.015
OSBPL3 (UniProt Q9H4L5),1.08 ± 0.025,1.08 ± 0.01,1.07 ± 0.025,1.08 ± 0.038,1.03 ± 0.029,1.07 ± 0.04
TMEM126A (UniProt Q9H061),1.01 ± 0.13,1.01 ± 0.064,0.976 ± 0.087,0.893 ± 0.086,1 ± 0.046,1.05 ± 0.1
UniProt Q9H0P0 and related entries,0.983 ± 0.051,0.96 ± 0.03,0.981 ± 0.013,0.988 ± 0.045,0.948 ± 0.077,0.952 ± 0.062
REEP4 (UniProt Q9H6H4),0.928 ± 0.08,0.958 ± 0.065,0.957 ± 0.1,0.898 ± 0.12,0.938 ± 0.14,0.965 ± 0.069
PARL (UniProt Q9H300),0.822 ± 0.12,0.924 ± 0.13,0.885 ± 0.061,0.724 ± 0.035,0.926 ± 0.09,1.01 ± 0.16
UniProt Q9C037 and related entries,1.02 ± 0.012,1.02 ± 0.03,1 ± 0.018,1.01 ± 0.043,1.02 ± 0.018,1.02 ± 0.018
EGLN1 (UniProt Q9GZT9),0.973 ± 0.093,1 ± 0.032,1.02 ± 0.041,1.01 ± 0.079,0.971 ± 0.038,0.996 ± 0.042
QRSL1 (UniProt Q9H0R6),0.998 ± 0.034,1.03 ± 0.036,0.987 ± 0.017,1.03 ± 0.033,0.977 ± 0.042,0.991 ± 0.033
UniProt Q9H2H8 and related entries,0.995 ± 0.015,0.974 ± 0.057,0.975 ± 0.054,1.01 ± 0.076,0.986 ± 0.08,0.986 ± 0.035
UniProt Q9H903 and related entries,1.03 ± 0.078,0.914 ± 0.053,1.06 ± 0.17,0.996 ± 0.06,0.999 ± 0.11,0.928 ± 0.022
UniProt Q9H9V9 and related entries,1.14 ± 0.17,1.03 ± 0.13,1.18 ± 0.11,1.04 ± 0.19,1.12 ± 0.25,1.03 ± 0.2
UniProt Q9C0F1,0.931 ± 0.019,0.922 ± 0.023,0.96 ± 0.065,1 ± 0.1,0.951 ± 0.049,0.928 ± 0.02
CWC22 (UniProt Q9HCG8),0.926 ± 0.11,0.916 ± 0.11,0.928 ± 0.11,0.949 ± 0.11,0.932 ± 0.09,0.978 ± 0.13
HMG20A (UniProt Q9NP66),1.05 ± 0.12,1.05 ± 0.055,1.06 ± 0.085,1.15 ± 0.17,1.18 ± 0.12,1.15 ± 0.14
UniProt Q9H8W3,1.27 ± 0.075,1.3 ± 0.17,1.33 ± 0.093,1.39 ± 0.17,1.38 ± 0.15,1.32 ± 0.073
